Measured values as given in the supplement of paper PMC12595434, “Development of retinoid nuclear receptor pathway antagonists through targeting aldehyde dehydrogenase 1A3” (iScience, 2025).
The list shows a part of the results. The data scatter; read single values as rough.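 Many melting curves are irregular; where none melted, Tm was taken as 64 °C.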

By UniProt entry, the sequences of proteins in these tests, tags left out. Where a name states a change or a piece, a line headed by the entry shows the natural chain unless it says otherwise.
UniProt Q92844: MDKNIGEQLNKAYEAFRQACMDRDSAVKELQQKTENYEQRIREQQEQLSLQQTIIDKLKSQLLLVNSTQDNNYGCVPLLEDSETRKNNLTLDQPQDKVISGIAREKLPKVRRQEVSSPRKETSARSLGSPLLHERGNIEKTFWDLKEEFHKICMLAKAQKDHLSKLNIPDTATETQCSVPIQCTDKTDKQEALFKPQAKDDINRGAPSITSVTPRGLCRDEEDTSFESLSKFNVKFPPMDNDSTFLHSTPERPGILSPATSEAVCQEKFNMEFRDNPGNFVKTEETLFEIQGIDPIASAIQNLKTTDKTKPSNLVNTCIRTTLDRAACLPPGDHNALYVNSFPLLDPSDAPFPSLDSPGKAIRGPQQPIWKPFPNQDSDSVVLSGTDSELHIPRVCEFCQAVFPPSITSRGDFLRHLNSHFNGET
UniProt Q96C12: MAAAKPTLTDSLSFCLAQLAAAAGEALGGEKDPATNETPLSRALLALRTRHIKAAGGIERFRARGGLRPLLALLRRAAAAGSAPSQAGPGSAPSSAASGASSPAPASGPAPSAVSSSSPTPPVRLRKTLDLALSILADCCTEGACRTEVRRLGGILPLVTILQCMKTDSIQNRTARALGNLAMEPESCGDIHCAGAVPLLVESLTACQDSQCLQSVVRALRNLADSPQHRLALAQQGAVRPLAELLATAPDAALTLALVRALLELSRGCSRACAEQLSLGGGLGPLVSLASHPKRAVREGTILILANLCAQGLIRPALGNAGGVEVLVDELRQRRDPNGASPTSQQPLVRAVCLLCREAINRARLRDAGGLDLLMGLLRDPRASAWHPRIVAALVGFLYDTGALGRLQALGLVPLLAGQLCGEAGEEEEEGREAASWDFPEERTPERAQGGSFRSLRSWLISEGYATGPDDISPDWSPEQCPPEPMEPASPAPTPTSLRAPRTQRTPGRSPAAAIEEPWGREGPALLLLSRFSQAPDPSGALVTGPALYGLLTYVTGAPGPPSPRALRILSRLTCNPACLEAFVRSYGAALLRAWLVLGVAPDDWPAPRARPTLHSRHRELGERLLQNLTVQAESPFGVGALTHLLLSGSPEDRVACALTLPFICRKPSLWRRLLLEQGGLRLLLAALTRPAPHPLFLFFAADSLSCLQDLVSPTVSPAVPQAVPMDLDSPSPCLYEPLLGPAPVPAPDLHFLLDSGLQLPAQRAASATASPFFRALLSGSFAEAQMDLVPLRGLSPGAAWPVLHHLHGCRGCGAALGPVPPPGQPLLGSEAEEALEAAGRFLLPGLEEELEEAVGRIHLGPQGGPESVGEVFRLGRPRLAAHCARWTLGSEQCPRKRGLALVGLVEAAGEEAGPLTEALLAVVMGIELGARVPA
UniProt Q969X6: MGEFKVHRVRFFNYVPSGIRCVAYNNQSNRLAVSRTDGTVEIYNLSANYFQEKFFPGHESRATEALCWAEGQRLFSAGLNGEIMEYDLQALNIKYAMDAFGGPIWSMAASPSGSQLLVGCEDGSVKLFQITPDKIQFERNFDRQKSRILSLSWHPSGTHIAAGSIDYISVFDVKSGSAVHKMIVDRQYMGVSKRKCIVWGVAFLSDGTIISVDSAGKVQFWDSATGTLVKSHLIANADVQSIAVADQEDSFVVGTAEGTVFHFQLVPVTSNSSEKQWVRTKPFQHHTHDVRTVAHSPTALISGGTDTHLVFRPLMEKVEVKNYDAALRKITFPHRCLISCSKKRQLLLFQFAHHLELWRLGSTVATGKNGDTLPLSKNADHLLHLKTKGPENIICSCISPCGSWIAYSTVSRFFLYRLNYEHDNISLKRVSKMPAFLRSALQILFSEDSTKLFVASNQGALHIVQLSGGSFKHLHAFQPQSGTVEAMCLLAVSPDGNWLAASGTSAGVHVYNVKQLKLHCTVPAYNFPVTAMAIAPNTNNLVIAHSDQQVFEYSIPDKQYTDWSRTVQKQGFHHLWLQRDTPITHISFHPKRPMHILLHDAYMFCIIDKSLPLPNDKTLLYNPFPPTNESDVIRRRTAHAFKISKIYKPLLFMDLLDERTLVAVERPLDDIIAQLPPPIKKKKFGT
UniProt Q96A49: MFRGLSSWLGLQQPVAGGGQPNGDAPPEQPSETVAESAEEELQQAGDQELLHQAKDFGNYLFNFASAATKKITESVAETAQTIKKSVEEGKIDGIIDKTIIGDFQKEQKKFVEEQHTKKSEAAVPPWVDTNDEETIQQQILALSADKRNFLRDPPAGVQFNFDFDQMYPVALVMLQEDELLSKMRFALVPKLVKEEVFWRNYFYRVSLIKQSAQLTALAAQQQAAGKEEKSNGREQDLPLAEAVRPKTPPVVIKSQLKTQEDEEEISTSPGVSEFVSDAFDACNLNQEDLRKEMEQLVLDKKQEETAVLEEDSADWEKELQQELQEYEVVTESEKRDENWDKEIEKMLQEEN
UniProt Q92618: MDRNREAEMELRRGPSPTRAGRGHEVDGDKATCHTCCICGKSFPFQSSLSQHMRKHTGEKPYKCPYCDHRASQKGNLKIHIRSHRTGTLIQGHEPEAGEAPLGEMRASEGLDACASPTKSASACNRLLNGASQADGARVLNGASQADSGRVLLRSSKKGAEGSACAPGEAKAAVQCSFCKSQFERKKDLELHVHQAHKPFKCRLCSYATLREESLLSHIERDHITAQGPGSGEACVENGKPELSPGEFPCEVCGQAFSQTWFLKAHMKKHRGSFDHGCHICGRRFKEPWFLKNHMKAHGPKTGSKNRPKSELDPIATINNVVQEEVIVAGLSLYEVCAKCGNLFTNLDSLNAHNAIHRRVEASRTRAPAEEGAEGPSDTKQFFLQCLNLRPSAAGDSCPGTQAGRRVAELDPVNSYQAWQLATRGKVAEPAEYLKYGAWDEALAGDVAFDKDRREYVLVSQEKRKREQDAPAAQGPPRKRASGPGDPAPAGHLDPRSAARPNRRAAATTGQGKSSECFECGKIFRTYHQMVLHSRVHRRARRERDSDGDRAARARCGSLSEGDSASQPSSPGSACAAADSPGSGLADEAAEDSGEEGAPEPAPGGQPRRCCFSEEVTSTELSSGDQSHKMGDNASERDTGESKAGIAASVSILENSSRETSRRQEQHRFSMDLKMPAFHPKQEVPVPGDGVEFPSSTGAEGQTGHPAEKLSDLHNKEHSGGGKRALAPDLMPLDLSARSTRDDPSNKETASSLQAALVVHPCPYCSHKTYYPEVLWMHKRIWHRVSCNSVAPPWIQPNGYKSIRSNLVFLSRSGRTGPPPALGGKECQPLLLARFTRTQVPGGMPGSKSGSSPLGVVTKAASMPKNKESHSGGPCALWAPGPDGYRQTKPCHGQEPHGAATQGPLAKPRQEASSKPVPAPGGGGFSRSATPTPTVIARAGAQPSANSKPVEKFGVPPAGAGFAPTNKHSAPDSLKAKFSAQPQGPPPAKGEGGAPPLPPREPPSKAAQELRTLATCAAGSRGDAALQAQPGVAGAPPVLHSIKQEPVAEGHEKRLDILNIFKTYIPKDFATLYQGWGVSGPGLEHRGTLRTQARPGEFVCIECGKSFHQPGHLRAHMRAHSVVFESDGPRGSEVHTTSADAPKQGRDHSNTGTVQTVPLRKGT
UniProt Q96AB3: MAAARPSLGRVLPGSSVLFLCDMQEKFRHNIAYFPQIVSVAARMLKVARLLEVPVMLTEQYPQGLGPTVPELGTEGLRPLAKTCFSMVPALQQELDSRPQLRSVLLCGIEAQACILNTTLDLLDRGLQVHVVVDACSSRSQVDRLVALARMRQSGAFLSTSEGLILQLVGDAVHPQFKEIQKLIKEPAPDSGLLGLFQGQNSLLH
UniProt Q92945: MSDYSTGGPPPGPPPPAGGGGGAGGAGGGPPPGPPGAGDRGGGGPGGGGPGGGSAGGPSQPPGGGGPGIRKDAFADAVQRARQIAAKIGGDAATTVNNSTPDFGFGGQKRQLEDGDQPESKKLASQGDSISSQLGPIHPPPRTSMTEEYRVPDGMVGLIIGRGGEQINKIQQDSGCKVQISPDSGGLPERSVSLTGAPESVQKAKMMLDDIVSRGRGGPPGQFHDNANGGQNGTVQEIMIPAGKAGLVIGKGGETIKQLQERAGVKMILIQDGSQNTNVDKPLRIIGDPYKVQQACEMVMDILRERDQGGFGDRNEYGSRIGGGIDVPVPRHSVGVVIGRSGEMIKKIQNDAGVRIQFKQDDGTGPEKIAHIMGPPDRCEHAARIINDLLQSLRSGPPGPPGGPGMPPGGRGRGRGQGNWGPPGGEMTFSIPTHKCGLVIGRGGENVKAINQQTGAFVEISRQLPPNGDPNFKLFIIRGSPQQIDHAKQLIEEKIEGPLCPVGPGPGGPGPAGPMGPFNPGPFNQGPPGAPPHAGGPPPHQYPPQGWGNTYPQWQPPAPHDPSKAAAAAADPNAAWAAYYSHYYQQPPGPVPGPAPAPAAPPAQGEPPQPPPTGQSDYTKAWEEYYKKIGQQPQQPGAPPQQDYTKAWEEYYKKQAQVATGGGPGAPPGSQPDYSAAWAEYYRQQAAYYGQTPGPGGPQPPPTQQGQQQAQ
UniProt Q969M7: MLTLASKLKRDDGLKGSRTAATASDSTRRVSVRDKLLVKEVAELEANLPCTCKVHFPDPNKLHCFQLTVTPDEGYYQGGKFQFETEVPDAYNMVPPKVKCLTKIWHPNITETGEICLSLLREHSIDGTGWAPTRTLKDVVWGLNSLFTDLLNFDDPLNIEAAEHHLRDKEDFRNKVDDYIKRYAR
UniProt Q92841: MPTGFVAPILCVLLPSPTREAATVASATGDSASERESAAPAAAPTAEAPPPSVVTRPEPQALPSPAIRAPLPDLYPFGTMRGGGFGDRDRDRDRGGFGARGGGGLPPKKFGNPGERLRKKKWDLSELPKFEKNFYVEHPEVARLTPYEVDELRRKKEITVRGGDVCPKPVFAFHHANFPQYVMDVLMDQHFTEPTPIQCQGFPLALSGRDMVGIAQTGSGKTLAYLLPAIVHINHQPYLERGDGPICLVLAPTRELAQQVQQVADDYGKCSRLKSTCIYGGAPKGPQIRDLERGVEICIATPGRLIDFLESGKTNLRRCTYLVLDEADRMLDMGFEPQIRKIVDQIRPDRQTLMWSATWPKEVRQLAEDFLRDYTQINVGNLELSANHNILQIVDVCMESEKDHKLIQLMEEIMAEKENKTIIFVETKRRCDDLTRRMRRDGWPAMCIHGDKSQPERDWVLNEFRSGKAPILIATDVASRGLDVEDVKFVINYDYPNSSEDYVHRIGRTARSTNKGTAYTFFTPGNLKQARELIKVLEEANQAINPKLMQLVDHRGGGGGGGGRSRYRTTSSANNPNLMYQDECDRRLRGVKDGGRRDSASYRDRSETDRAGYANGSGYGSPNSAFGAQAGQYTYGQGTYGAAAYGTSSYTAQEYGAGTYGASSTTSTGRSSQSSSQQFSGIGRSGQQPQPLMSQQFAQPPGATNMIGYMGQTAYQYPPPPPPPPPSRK
UniProt Q92870: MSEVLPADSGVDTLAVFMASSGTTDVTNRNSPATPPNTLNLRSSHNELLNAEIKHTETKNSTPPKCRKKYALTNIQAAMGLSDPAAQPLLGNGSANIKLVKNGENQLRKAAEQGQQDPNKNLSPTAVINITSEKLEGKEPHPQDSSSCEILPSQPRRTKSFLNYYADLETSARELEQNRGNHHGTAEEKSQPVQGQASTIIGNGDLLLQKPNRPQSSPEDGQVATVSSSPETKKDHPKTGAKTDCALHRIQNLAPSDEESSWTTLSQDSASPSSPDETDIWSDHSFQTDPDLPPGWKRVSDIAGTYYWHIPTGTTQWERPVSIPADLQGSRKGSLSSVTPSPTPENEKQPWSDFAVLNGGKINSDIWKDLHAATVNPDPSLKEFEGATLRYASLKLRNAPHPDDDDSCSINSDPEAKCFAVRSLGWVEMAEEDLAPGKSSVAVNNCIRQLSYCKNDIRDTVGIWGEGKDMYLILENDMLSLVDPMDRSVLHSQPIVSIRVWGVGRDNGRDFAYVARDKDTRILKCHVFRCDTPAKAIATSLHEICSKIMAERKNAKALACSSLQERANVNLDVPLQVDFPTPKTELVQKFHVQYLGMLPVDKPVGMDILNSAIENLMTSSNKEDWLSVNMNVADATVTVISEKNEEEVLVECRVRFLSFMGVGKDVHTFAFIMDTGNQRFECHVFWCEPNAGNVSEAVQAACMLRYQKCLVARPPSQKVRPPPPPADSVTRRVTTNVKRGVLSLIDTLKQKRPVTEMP
UniProt Q96CN7: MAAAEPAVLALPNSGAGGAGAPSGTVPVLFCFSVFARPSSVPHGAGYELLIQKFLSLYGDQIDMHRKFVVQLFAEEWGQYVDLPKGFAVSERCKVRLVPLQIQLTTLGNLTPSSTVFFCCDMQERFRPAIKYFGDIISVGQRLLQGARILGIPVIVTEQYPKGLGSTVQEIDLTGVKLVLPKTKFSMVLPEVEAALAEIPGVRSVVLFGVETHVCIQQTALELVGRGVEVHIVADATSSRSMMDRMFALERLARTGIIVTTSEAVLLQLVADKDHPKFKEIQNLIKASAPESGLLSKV
UniProt Q96C90: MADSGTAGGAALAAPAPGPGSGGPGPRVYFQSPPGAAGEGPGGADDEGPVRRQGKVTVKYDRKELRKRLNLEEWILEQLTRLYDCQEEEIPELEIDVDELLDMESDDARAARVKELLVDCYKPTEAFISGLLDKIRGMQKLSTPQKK

Compound: CCc1cnccc1C(=O)Nc1cc2c(cc1F)NC(=O)CC2
Experiment: melting temperature shift (DMSO Tm minus MBE1-treated Tm) in cellular thermal proteome profiling; higher = less thermal stabilization by MBE1 (negative = stabilized by MBE1)
Conditions: A375

Target	melting temperature shift (MBE1 concentration: 100 nM) [°C]	melting temperature shift (MBE1 concentration: 1 uM) [°C]
COA7 (UniProt Q96BR5)	-0.758	0.268
UniProt Q92844	5.79	–
UniProt Q8WWN8	-0.759	-0.263
UPF1 (UniProt Q92900)	0.745	0.177
FAM162A (UniProt Q96A26)	–	0.697
GTF3C6 (UniProt Q969F1)	–	0.122
BBX (UniProt Q8WY36)	0.288	-0.814
STAM (UniProt Q92783)	-0.533	0.208
UniProt Q96C12	-0.0833	–
PSPC1 (UniProt Q8WXF1)	-1.03	-0.79
RMDN1 (UniProt Q96DB5)	-0.503	-0.416
UniProt Q92546	1.19	0.855
UFD1L (UniProt Q92890)	-0.724	0.595
GLMN (UniProt Q92990)	0.232	0.36
OPTN (UniProt Q96CV9)	0.931	0.464
RAB24 (UniProt Q969Q5)	-1.07	0.496
OTULIN (UniProt Q96BN8)	0.276	-0.358
NUDT16 (UniProt Q96DE0)	-1.07	1.55
PBXIP1 (UniProt Q96AQ6)	-7.29	-6.34
UniProt Q8WYQ5	-0.0305	-1.09
UniProt Q92754	1.65	-0.702
CLP1 (UniProt Q92989)	0.501	0.409
PIGT (UniProt Q969N2)	0.14	1.21

Complete entries, quoted from the list. Order of values: melting temperature shift (MBE1 concentration: 100 nM) [°C]	melting temperature shift (MBE1 concentration: 1 uM) [°C]
PBXIP1 (UniProt Q96AQ6) is listed as -7.29	-6.34
OTULIN (UniProt Q96BN8) is listed as 0.276	-0.358
UniProt Q92754 is listed as 1.65	-0.702
UPF1 (UniProt Q92900) is listed as 0.745	0.177

The list continues:

Target	melting temperature shift (MBE1 concentration: 100 nM) [°C]	melting temperature shift (MBE1 concentration: 1 uM) [°C]
UTP4 (UniProt Q969X6)	-0.516	0.188
USP13 (UniProt Q92995)	0.794	1.67
SYAP1 (UniProt Q96A49)	-0.61	0.161
RPE (UniProt Q96AT9)	3.79	0.235
GRAMD1A (UniProt Q96CP6)	0.492	0.195
USP6NL (UniProt Q92738)	-0.427	-0.775
GCC1 (UniProt Q96CN9)	-1.43	-0.621
DDX1 (UniProt Q92499)	0.263	0.0488
UniProt Q96DE5	-1.06	0.305
C2ORF47 (UniProt Q8WWC4)	-1.32	-0.848
NELFB (UniProt Q8WX92)	-1.05	-0.488
TAMM41 (UniProt Q96BW9)	0.0733	0.0183
UniProt Q92618	-6.39	0.224
UniProt Q96AB3	-1.53	0.466
CCDC124 (UniProt Q96CT7)	-1.26	-2.95
PSMG2 (UniProt Q969U7)	-0.195	-1.76
PSMF1 (UniProt Q92530)	-0.711	0.241
KHSRP (UniProt Q92945)	-3.23	-1.06
UBE2F (UniProt Q969M7)	-0.369	-0.0872
DDX17 (UniProt Q92841)	0.0977	-0.495
GTF2H4 (UniProt Q92759)	-0.205	-0.307
UniProt Q93084	-0.758	0.302
APBB2 (UniProt Q92870)	-0.194	1.25

Target	melting temperature shift (MBE1 concentration: 100 nM) [°C]	melting temperature shift (MBE1 concentration: 1 uM) [°C]
MRPL24 (UniProt Q96A35)	0.696	-0.983
UniProt Q92823	-2.33	-1.97
ZNF622 (UniProt Q969S3)	-1.17	0.758
KCTD12 (UniProt Q96CX2)	-0.427	0.558
SMARCE1 (UniProt Q969G3)	-0.48	-0.404
RNF25 (UniProt Q96BH1)	-0.0802	0.202
ATP6V0A1 (UniProt Q93050)	-2.07	-2.17
PMM1 (UniProt Q92871)	0.898	0.647
ISOC1 (UniProt Q96CN7)	-0.912	0.311
UniProt Q8WY91	-1.68	-1.31
PPP1R14B (UniProt Q96C90)	-1.14	0.219
GCN1 (UniProt Q92616)	-0.685	-0.416
UniProt Q96BN2	-0.955	-0.416
RABGGTA (UniProt Q92696)	-0.101	0.282
GCDH (UniProt Q92947)	-1.34	0
UniProt Q96BZ9	0.531	0.55
UniProt Q8WY54	-0.134	0.758
UniProt Q92619	0.659	0.0183
LPGAT1 (UniProt Q92604)	0.824	0.635
ADCK4 (UniProt Q96D53)	-0.583	-1.08
PPWD1 (UniProt Q96BP3)	0.189	-0.305
UniProt Q92610	-1.25	-0.0946
GOLGA1 (UniProt Q92805)	-1.11	-0.856

Target	melting temperature shift (MBE1 concentration: 100 nM) [°C]	melting temperature shift (MBE1 concentration: 1 uM) [°C]
ARHGEF2 (UniProt Q92974)	-0.88	-0.372
JADE3 (UniProt Q92613)	-1.79	0.299
UniProt Q96DU7	-1.39	-0.794
LARP4B (UniProt Q92615)	0.299	0.0122
MUL1 (UniProt Q969V5)	0.659	1.65
PIGK (UniProt Q92643)	-0.577	0.357
TTN (UniProt Q8WZ42)	-1.63	0.0494
UniProt Q92843	-0.462	-3.14
DOCK10 (UniProt Q96BY6)	0.0672	1.6
UniProt Q92834	-0.718	0.201
NSUN4 (UniProt Q96CB9)	0.114	0.366
LMO7 (UniProt Q8WWI1)	-0.988	-0.899
UniProt Q96CB8	-0.308	-0.705
ELP4 (UniProt Q96EB1)	-1.42	0.0855
SYMPK (UniProt Q92797)	-0.816	0.0448
ANKS1A (UniProt Q92625)	-0.996	-0.0448
APPBP2 (UniProt Q92624)	0.563	3.19
ITFG2 (UniProt Q969R8)	-1.02	0.359
SH3KBP1 (UniProt Q96B97)	-2.18	0.469
REPS1 (UniProt Q96D71)	0.0518	-0.801
TAF15 (UniProt Q92804)	-2.85	1.59
UniProt Q93075	-3.84	-2.53
DNAJC9 (UniProt Q8WXX5)	0.11	0.342
